According to patent US20250075147A1, “FRAGRANCE AND FLAVOR COMPOSITIONS COMPRISING NEW FLAVOR AND FRAGRANCE INGREDIENTS” (priority 2023, published 2025):

Key:
[1] = Evaluation by trained and/or certified flavor or fragrance chemists or master perfumers; categorization by commercial prospect; details: for Rating: category of commercial prospect, (A) highest > (B) > (C) > (D) lowest, (E) requires further study; for Rating (category of commercial prospect): evaluation by trained flavor or fragrance chemists or master perfumers
odor evaluation panel = experiment: Odor evaluation panel rating of odorants by Rate-All-That-Apply (RATA) method with 55-word odor lexicon, plus intensity and pleasantness; design: species or system human; details: for Floral: mean panelist score for odor label floral (RATA); for Fruity: mean panelist score for odor label fruity (RATA); for Spicy: mean panelist score for odor label spicy (RATA); for Sweet: mean panelist score for odor label sweet (RATA); for Pleasantness: mean panelist score for odor pleasantness

SMILES	Rating [1]	Floral (odor evaluation panel)	Fruity (odor evaluation panel)	Spicy (odor evaluation panel)	Sweet (odor evaluation panel)	Pleasantness (odor evaluation panel)	Rating (category of commercial prospect) [1]
c1ccnnc1 [Compound 562, pyridazine]	(D)	0.281	0.438	0.125	0.531	5.175	
c1ccc2[nH]ncc2c1 [Compound 511, 1H-indazole]	(D)	0.156		0.25	0.625	4.728	
CCOC(=O)Cc1ccc(OCC)cc1 [Compound 864, ethyl 2-(4-ethoxyphenyl)acetate]		1.438	0.188	0.406	1.312	5.975	(C)
N#Cc1ccsc1 [Compound 961, thiophene-3-carbonitrile]		0.406	1.438	1.469	2.281	6.547	(D)
Cn1ccnc1 [Compound 620, 1-methylimidazole]		0.194	0.083	0	0.361		(D)
CC(C)(C)OC(=O)c1ccc(N)cc1 [Compound 931, tert-butyl 4-aminobenzoate]		0.111	0.056	0	0.111		(D)
N#CC1(c2ccccc2)CCCC1 [Compound 985, 1-phenylcyclopentane-1-carbonitrile]		1.056	0.5	0.194	0.528		(D)
c1ccc(-n2cccn2)cc1 [Compound 163, 1-phenylpyrazole]	(D)	0.265	0.176	0.176	0.559	4.597	
CCOC=C(C#N)C#N [Compound 349, 2-(ethoxymethylidene)propanedinitrile]	(D)	0.625	0.188	0.281	0.562	4.794	
COC(=O)/C=C/c1ccc(C)cc1 [Compound 781, methyl (E)-3-(4-methylphenyl)prop-2-enoate]		0.364	1.273	0	1.03	5.488	(D)
C=Cc1ccc(OC(C)=O)cc1 [Compound 900, (4-ethenylphenyl) acetate]		0.156	0.125	0.781	1.062	4.419	(B)
Cc1cnc[nH]1 [Compound 455, 5-methyl-1H-imidazole]	(A)	0.094	0	0.062	0.719	6.778	
CC(=Cc1ccccc1)[N+](=O)[O-] [Compound 721, 1-phenyl-2-nitropropene]		0.543	0.229	1.971	1.8	6.391	(D)
Cc1cc(C#N)c(N)s1 [Compound 598, 2-amino-5-methylthiophene-3-carbonitrile]		0.324	0.529	0.529	1.647	6.135	(D)
Cc1cn[nH]c1C [Compound 713, 4,5-dimethyl-1H-pyrazole]		0.057	0.029	0.029	1	4.354	(C)
C1=C(c2ccccc2)CCCC1 [Compound 611, cyclohexen-1-ylbenzene]		1.156	0.188	0.406	0.656	5.197	(D)
CC1(C)Oc2ccccc2O1 [Compound 571, 2,2-dimethyl-1,3-benzodioxole]		0.429	0	0.686	0.114	4.506	(D)
CNc1ccccc1C(=O)O [Compound 698, 2-(methylamino)benzoic acid]		0.219	0	0.031	0.375	5.197	(D)
CCc1ncc[nH]1 [Compound 401, 2-ethyl-1H-imidazole]	(D)	0.083	0.028	0	0.139		

SMILES	Rating [1]	Floral (odor evaluation panel)	Fruity (odor evaluation panel)	Spicy (odor evaluation panel)	Sweet (odor evaluation panel)	Pleasantness (odor evaluation panel)	Rating (category of commercial prospect) [1]
OC1C2CC3CC(C2)CC1C3 (stereo not drawn) [Compound 460, adamantan-2-ol]	(B)	0.056	0.028	0.361	0.056		
CN(C)CC[C@H](O)c1cccs1 [Compound 143, (1S)-3-(dimethylamino)-1-thiophen-2-ylpropan-1-ol]	(D)	0.182	0.424	0.03	0.848	4.852	
C=C(C)C(=O)OC1CC(C)(C)NC(C)(C)C1 [Compound 733, (2,2,6,6-tetramethylpiperidin-4-yl) 2-methylprop-2-enoate]		0.143	0.314	0	0.229	3.766	(D)
CCCCOc1ccccn1 [Compound 272, 2-butoxypyridine]	(A)	0.417	0.306	0.833	0.583		
CC(C)=CCC/C(C)=C1\CC=C(C)CC1 [Compound 585, (4Z)-1-methyl-4-(6-methylhept-5-en-2-ylidene)cyclohexene]		0.226	0.645	0	1.129	4.977	(C)
CCN(CCO)c1cccc(C)c1 [Compound 875, 2-(N-ethyl-3-methylanilino)ethanol]		0.533	0.433	0	0.867	5.147	(D)
OCC1CC2C=CC1C2 (stereo not drawn) [Compound 736, 2-bicyclo[2.2.1]hept-5-enylmethanol]		0.188	0.25	0.031	0.812	4.669	(A)
c1ccc(C2=NCCO2)cc1 [Compound 941, 2-phenyl-4,5-dihydro-1,3-oxazole]		0.314	0.571	0.114	1.086	5.94	(D)
O=c1ccoc2ccccc12 [Compound 480, chromen-4-one]	(B)	0.889	0.583	0	1.25		
CCCC(CCC)(C(=O)OCC)C(=O)OCC [Compound 100, diethyl 2,2-dipropylpropanedioate]	(A)	0.312	1.562	0	1.062	6.344	
CCOC(=O)CCNCc1ccccc1 [Compound 273, ethyl 3-(benzylamino)propanoate]	(B)	0.028	0	0.25	0		
Cc1ccc(N)c(N)c1 [Compound 206, 4-methylbenzene-1,2-diamine]		0.028	0.139	0.056	0.167		
CC(C)N(C=O)C(C)C [Compound 701, N,N-di(propan-2-yl)formamide]		0.2	0.933	0	1.033	5.737	(A)
CCCCC(CC)CNCC(CC)CCCC (stereo not drawn) [Compound 30, 2-ethyl-N-(2-ethylhexyl)hexan-1-amine]		0.281	0	0	0.125	3.647	
C=CN1CCCCCC1=O [Compound 147, 1-ethenylazepan-2-one]		0.303	0.667	0.152	1	5.712	
CC/C(C)=N/O [Compound 518, (NE)-N-butan-2-ylidenehydroxylamine]		0.394	0.061	0.242	0.636	5.176	
CSC(=N)N [Compound 730, methyl carbamimidothioate]							(D)
CCC(C)=NO [Compound 895, N-butan-2-ylidenehydroxylamine]		0.3	0	0.267	0.9	4.627	
CCCCCCCCCC(=O)N(C)C [Compound 90, N,N-dimethyl decanamide]		0.062	0.062	0.281	0.219	3.359	
